Data from US20070180584.
For at least one entry, the source does not settle the construct or the ends of the probe. Results from cells or extracts need not show a direct contact. Tags and fusion partners may be left off the protein sequences shown.

System: T1, Hahb-4 (nuclear extract proteins, induced by ABA or water stress) (Helianthus annuus)
T1 sequence: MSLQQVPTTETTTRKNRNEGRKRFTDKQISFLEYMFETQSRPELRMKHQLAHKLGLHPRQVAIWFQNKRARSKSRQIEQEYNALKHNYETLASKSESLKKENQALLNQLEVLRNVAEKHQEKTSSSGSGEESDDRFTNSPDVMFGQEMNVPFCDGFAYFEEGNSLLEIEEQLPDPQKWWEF
Experiment: EMSA
Details: nuclear extracts (30 ug) from control, ABA-treated and water-stressed seedlings; ABA and water stress induce specific binding, shifted bands A and B; protein in an extract; label: 32P (Klenow fill-in of 3' ends)

“AATTCAGATCTCAATAATTGAGAG / GATCCTCTCAATTATTGAGATCTG [Hahb-4 target site oligonucleotide]”: binds.
